Measured values as given in PubChem BioAssay AID435022 (Sanford-Burnham Center for Chemical Genomics, 2010).
The entries are a selection whose mix differs from that of the whole data set. Active and inactive are the calls of the source. Rule as the data show it: active = inhibition above about 35%; inactive = the rest.

Experiment: inhibitors of PMA/ionomycin-induced NF-kB reporter, 697 cells, primary screen, B-cell NF-kB inhibitor project, cell-based, luminescence, uHTS (AID 435022)
Details: 697 B-cell NF-kB luciferase reporter, 16 h, at 4 µM, hits give high values

Row | Structure (SMILES) | inhibition
1 | CN[C@H]1C[C@H]2O[C@@](C)([C@H]1OC)n1c3ccccc3c3c4c(c5c6ccccc6n2c5c31)C(=O)NC4 | active: 105%
